According to patent US20260224547A1, “COMPOSITIONS COMPRISING ANATABINE AND USES THEREOF” (Philip Morris Products S.A., priority 2021, published 2026):
Some results were stated once for a whole list of compounds, not compound by compound.

System: NRF2 reporter cells
Experiment: Cell viability measured with ATP assay alongside NRF2 translocation (FIG. 4 to 7)
Description: FIGS. 5A to 5C: bar and line graphs showing NRF2 translocation presented as log 2 fold change compared to vehicle control (bars) and cell viability measured with ATP assay and presented as a percentage of the vehicle control (line) for anatabine (FIG. 5A), dimethyl fumarate (AlfaAesar) (FIG. 5B), and nornicotine (FIG. 5C).
FIGS. 6A to 6C: bar graphs showing NRF2 translocation presented as log 2 fold change compared to vehicle control (bars) and cell viability measured with ATP assay and presented as a percentage of the vehicle control (line) for anatabine (FIG. 6A), dimethyl fumarate (Sigma) (FIG. 6B), and sulforaphane (FIG. 6C).
FIGS. 7A and […]: bar graphs showing NRF2 translocation presented as log 2 fold change compared to vehicle control (bars) and cell viability measured with ATP assay and presented as a percentage of the vehicle control (line) for cotinine (FIG. 7A) and nicotine (FIG. 7B).

With `c1cncc([C@@H]2CCCN2)c1` [nornicotine] the “cell viability, percentage of the vehicle control” value (from here on “cell viability, percentage”) (250 μM) was “below 85%”, the “cell viability, percentage” value (500 μM) was “below 85%” and the “cell viability, percentage” value (1000 μM) was “below 85%”.
With `c1cncc([C@@H]2CCCCN2)c1` [anabasine] the “cell viability, percentage” value (500 μM) was “below 85%” and the “cell viability, percentage” value (1000 μM) was “below 85%”.
